# Assay results reported in the supplement of paper PMC8728848.
# Some of the results follow.
# Legend:
# Assay in all cases: glycan array binding signal (z-score within array); higher = stronger binding
# Conditions in all cases: glycan notation: IUPAC condensed, linker removed
# [1] = target: GlcNAc(b1-3)Gal(b1-4)Glc
# In short: (§1)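 Glycan array data were curated from 3228 arrays in the Consortium for Functional Glycomics database and kept only where the protein sequence was available. Glycan names were converted to IUPAC-condensed notation, and columns mapping to the same glycan were averaged. The binding signal is a within-array Z-score, averaged across arrays of the same protein sequence at different concentrations or buffers and across linkers. Negative Z-scores can be read as non-binding.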
# [2] = target: GlcNAc(b1-3)Gal(b1-4)GlcNAc
# In short: as §1
# [3] = target: GlcNAc(b1-3)Gal(b1-4)GlcNAc(b1-2)Man(a1-3)[GlcNAc(b1-3)Gal(b1-4)GlcNAc(b1-2)Man(a1-6)]Man(b1-4)GlcNAc(b1-4)GlcNAc
# In short: as §1
# [4] = target: GlcNAc(b1-3)Gal(b1-4)GlcNAc(b1-2)Man(a1-3)[GlcNAc(b1-3)Gal(b1-4)GlcNAc(b1-2)Man(a1-6)]Man(b1-4)GlcNAc(b1-4)[Fuc(a1-6)]GlcNAc
# In short: as §1
# [5] = target: GlcNAc(b1-3)Gal(b1-4)GlcNAc(b1-2)[GlcNAc(b1-3)Gal(b1-4)GlcNAc(b1-6)]Man(a1-6)[GlcNAc(b1-3)Gal(b1-4)GlcNAc(b1-2)Man(a1-3)]Man(b1-4)GlcNAc(b1-4)GlcNAc
# In short: as §1
# [6] = target: GlcNAc(b1-3)Gal(b1-4)GlcNAc(b1-3)Gal(b1-4)GlcNAc
# In short: as §1
# [7] = target: GlcNAc(b1-3)Gal(b1-4)GlcNAc(b1-3)Gal(b1-4)GlcNAc(b1-2)Man(a1-3)[GlcNAc(b1-3)Gal(b1-4)GlcNAc(b1-3)Gal(b1-4)GlcNAc(b1-2)Man(a1-6)]Man(b1-4)GlcNAc(b1-4)GlcNAc
# In short: as §1
# [8] = target: GlcNAc(b1-3)Gal(b1-4)GlcNAc(b1-3)Gal(b1-4)GlcNAc(b1-2)Man(a1-3)[GlcNAc(b1-3)Gal(b1-4)GlcNAc(b1-3)Gal(b1-4)GlcNAc(b1-2)Man(a1-6)]Man(b1-4)GlcNAc(b1-4)[Fuc(a1-6)]GlcNAc
# In short: as §1
# [9] = target: GlcNAc(b1-3)Gal(b1-4)GlcNAc(b1-3)Gal(b1-4)GlcNAc(b1-2)[GlcNAc(b1-3)Gal(b1-4)GlcNAc(b1-3)Gal(b1-4)GlcNAc(b1-6)]Man(a1-6)[GlcNAc(b1-3)Gal(b1-4)GlcNAc(b1-3)Gal(b1-4)GlcNAc(b1-2)Man(a1-3)]Man(b1-4)GlcNAc(b1-4)[Fuc(a1-6)]GlcNAc
# In short: as §1
# [10] = target: GlcNAc(b1-3)Gal(b1-4)GlcNAc(b1-3)Gal(b1-4)GlcNAc(b1-3)Gal(b1-4)GlcNAc(b1-2)Man(a1-3)[GlcNAc(b1-3)Gal(b1-4)GlcNAc(b1-3)Gal(b1-4)GlcNAc(b1-3)Gal(b1-4)GlcNAc(b1-2)Man(a1-6)]Man(b1-4)GlcNAc(b1-4)GlcNAc
# In short: as §1
# [11] = target: GlcNAc(b1-3)Gal(b1-4)GlcNAc(b1-3)Gal(b1-4)GlcNAc(b1-3)Gal(b1-4)GlcNAc(b1-2)Man(a1-3)[GlcNAc(b1-3)Gal(b1-4)GlcNAc(b1-3)Gal(b1-4)GlcNAc(b1-3)Gal(b1-4)GlcNAc(b1-2)Man(a1-6)]Man(b1-4)GlcNAc(b1-4)[Fuc(a1-6)]GlcNAc
# In short: as §1
# [12] = target: GlcNAc(b1-3)Gal(b1-4)GlcNAc(b1-3)Gal(b1-4)GlcNAc(b1-3)Gal(b1-4)GlcNAc(b1-2)[GlcNAc(b1-3)Gal(b1-4)GlcNAc(b1-3)Gal(b1-4)GlcNAc(b1-3)Gal(b1-4)GlcNAc(b1-6)]Man(a1-6)[GlcNAc(b1-3)Gal(b1-4)GlcNAc(b1-3)Gal(b1-4)GlcNAc(b1-3)Gal(b1-4)GlcNAc(b1-2)Man(a1-3)]Man(b1-4)GlcNAc(b1-4)[Fuc(a1-6)]GlcNAc
# In short: as §1
# [13] = target: GlcNAc(b1-3)Gal(b1-4)GlcNAc(b1-3)Gal(b1-4)GlcNAc(b1-3)Gal(b1-4)GlcNAc(b1-3)Gal(b1-4)GlcNAc(b1-2)Man(a1-3)[GlcNAc(b1-3)Gal(b1-4)GlcNAc(b1-3)Gal(b1-4)GlcNAc(b1-3)Gal(b1-4)GlcNAc(b1-3)Gal(b1-4)GlcNAc(b1-2)Man(a1-6)]Man(b1-4)GlcNAc(b1-4)GlcNAc
# In short: as §1
# [14] = target: GlcNAc(b1-3)Gal(b1-4)GlcNAc(b1-3)Gal(b1-4)GlcNAc(b1-3)Gal(b1-4)GlcNAc(b1-3)Gal(b1-4)GlcNAc(b1-2)Man(a1-3)[GlcNAc(b1-3)Gal(b1-4)GlcNAc(b1-3)Gal(b1-4)GlcNAc(b1-3)Gal(b1-4)GlcNAc(b1-3)Gal(b1-4)GlcNAc(b1-2)Man(a1-6)]Man(b1-4)GlcNAc(b1-4)[Fuc(a1-6)]GlcNAc
# In short: as §1
# [15] = target: GlcNAc(b1-3)Gal(b1-4)GlcNAc(b1-3)Gal(b1-4)GlcNAc(b1-3)Gal(b1-4)GlcNAc(b1-3)Gal(b1-4)GlcNAc(b1-2)[GlcNAc(b1-3)Gal(b1-4)GlcNAc(b1-3)Gal(b1-4)GlcNAc(b1-3)Gal(b1-4)GlcNAc(b1-3)Gal(b1-4)GlcNAc(b1-6)]Man(a1-6)[GlcNAc(b1-3)Gal(b1-4)GlcNAc(b1-3)Gal(b1-4)GlcNAc(b1-3)Gal(b1-4)GlcNAc(b1-3)Gal(b1-4)GlcNAc(b1-2)Man(a1-3)]Man(b1-4)GlcNAc(b1-4)[Fuc(a1-6)]GlcNAc
# In short: as §1
# [16] = target: GlcNAc(b1-3)Gal(b1-4)GlcNAc(b1-3)Gal(b1-4)GlcNAc(b1-3)GalNAc
# In short: as §1
# [17] = target: GlcNAc(b1-3)Gal(b1-4)GlcNAc(b1-3)GalNAc
# In short: as §1
# [18] = target: GlcNAc(b1-3)Gal(b1-4)GlcNAc(b1-3)[GlcNAc(b1-3)Gal(b1-4)GlcNAc(b1-3)]GalNAc
# In short: as §1
# [19] = target: GlcNAc(b1-3)Gal(b1-4)GlcNAc(b1-6)[Gal(b1-3)]GalNAc
# In short: as §1
# [20] = target: GlcNAc(b1-3)Gal(b1-4)GlcNAc(b1-6)[GlcNAc(b1-3)Gal(b1-3)]GalNAc
# In short: as §1
# [21] = target: GlcNAc(b1-3)Gal(b1-4)GlcNAc(b1-6)[GlcNAc(b1-3)]Gal(b1-4)GlcNAc
# In short: as §1
# [22] = target: GlcNAc(b1-3)GalNAc
# In short: as §1
# [23] = target: GlcNAc(b1-3)Man
# In short: as §1
# [24] = target: GlcNAc(b1-3)[GlcNAc(b1-4)][GlcNAc(b1-6)]GlcNAc
# In short: as §1
# [25] = target: GlcNAc(b1-3)[GlcNAc(b1-6)]Gal(b1-4)GlcNAc
# In short: as §1
# [26] = target: GlcNAc(b1-3)[GlcNAc(b1-6)]GalNAc
# In short: as §1
# [27] = target: GlcNAc(b1-4)Gal(b1-4)GlcNAc
# In short: as §1
# [28] = target: GlcNAc(b1-4)GlcNAc
# In short: as §1
# [29] = target: GlcNAc(b1-4)GlcNAc(b1-4)GlcNAc
# In short: as §1
# [30] = target: GlcNAc(b1-4)GlcNAc(b1-4)GlcNAc(b1-4)GlcNAc(b1-4)GlcNAc
# In short: as §1
# [31] = target: GlcNAc(b1-4)GlcNAc(b1-4)GlcNAc(b1-4)GlcNAc(b1-4)GlcNAc(b1-4)GlcNAc
# In short: as §1
# [32] = target: GlcNAc(b1-4)[GlcNAc(b1-6)]GalNAc
# In short: as §1
# [33] = target: GlcNAc(b1-6)Gal(b1-4)GlcNAc
# In short: as §1
# [34] = target: GlcNAc(b1-6)GalNAc
# In short: as §1
# [35] = target: GlcNAc6S(b1-3)Gal(b1-4)GlcNAc
# In short: as §1
# [36] = target: Kdn(a2-3)Gal(b1-3)GalNAc
# In short: as §1
# [37] = target: Kdn(a2-3)Gal(b1-3)GlcNAc
# In short: as §1
binder,measurement,setting,value
PX9961M-bvu-482-23-482 (Bacteroides vulgatus) (protein) WLDLAPSTQVDTETSINVLSDIEFTLNGIYSTMQSSDAYSGRLVYYGDVTGDDMQAVSSTKRTGNYYRFNFTKDNGPSSHWSYLYSIIQNCNLILMNVDKLSIDEDETEYKNDLKGQALAIRGMALFDLTRIFGYPYLKDNGASLGVPIVKELSTIDSKPARNTVAECYTEIISDLKNSTELLSGDFNKGKVNRWAAMTLLSRVYLYKGEYNEALTMAENAIKGAEKEGYALWTNEEYPTAWGNDASASNPGEILFEIVNLTTDSPGKESMGYLNSYNGYDDMCITCSFYQLLKKDPKDVRLKILSFDKKYYAYVNKYQPQQGENITDANIPLIRLSEAYLNAAEAAVQTGDNAKAVKYLNSIVQRANPENSVEGKTLTLENVLDERRKELVAEGHRMYDVIRNGMTVKRIDVKDSDINKTKHNTAYMEYDWNFHKILLPIPKKEMDANPNMKQNPGYVD,glycan array binding signal (z-score),[1],-0.369
same,glycan array binding signal (z-score),[2],-0.631
same,glycan array binding signal (z-score),[3],0.116
same,glycan array binding signal (z-score),[4],0.507
same,glycan array binding signal (z-score),[5],-0.33
same,glycan array binding signal (z-score),[6],-0.544
same,glycan array binding signal (z-score),[7],0.846
same,glycan array binding signal (z-score),[8],0.761
same,glycan array binding signal (z-score),[9],0.334
same,glycan array binding signal (z-score),[10],0.039
same,glycan array binding signal (z-score),[11],1.18
same,glycan array binding signal (z-score),[12],1.99
same,glycan array binding signal (z-score),[13],1.22
same,glycan array binding signal (z-score),[14],1.59
same,glycan array binding signal (z-score),[15],1.58
same,glycan array binding signal (z-score),[16],0.254
same,glycan array binding signal (z-score),[17],-0.506
same,glycan array binding signal (z-score),[18],-0.459
same,glycan array binding signal (z-score),[19],-0.394
same,glycan array binding signal (z-score),[20],0.464
same,glycan array binding signal (z-score),[21],1.12
same,glycan array binding signal (z-score),[22],-0.057
same,glycan array binding signal (z-score),[23],0.099
same,glycan array binding signal (z-score),[24],-0.093
same,glycan array binding signal (z-score),[25],-0.467
same,glycan array binding signal (z-score),[26],-0.325
same,glycan array binding signal (z-score),[27],0.345
same,glycan array binding signal (z-score),[28],-0.061
same,glycan array binding signal (z-score),[29],-0.183
same,glycan array binding signal (z-score),[30],-0.548
same,glycan array binding signal (z-score),[31],-0.862
same,glycan array binding signal (z-score),[32],0.697
same,glycan array binding signal (z-score),[33],-1.11
same,glycan array binding signal (z-score),[34],-0.68
same,glycan array binding signal (z-score),[35],-0.239
same,glycan array binding signal (z-score),[36],-0.994
same,glycan array binding signal (z-score),[37],-0.092

# An excerpt of these results, with tabs.
binder	measurement	setting	value
PX9961M-bvu-482-23-482 (Bacteroides vulgatus) (protein) WLDLAPSTQVDTETSINVLSDIEFTLNGIYSTMQSSDAYSGRLVYYGDVTGDDMQAVSSTKRTGNYYRFNFTKDNGPSSHWSYLYSIIQNCNLILMNVDKLSIDEDETEYKNDLKGQALAIRGMALFDLTRIFGYPYLKDNGASLGVPIVKELSTIDSKPARNTVAECYTEIISDLKNSTELLSGDFNKGKVNRWAAMTLLSRVYLYKGEYNEALTMAENAIKGAEKEGYALWTNEEYPTAWGNDASASNPGEILFEIVNLTTDSPGKESMGYLNSYNGYDDMCITCSFYQLLKKDPKDVRLKILSFDKKYYAYVNKYQPQQGENITDANIPLIRLSEAYLNAAEAAVQTGDNAKAVKYLNSIVQRANPENSVEGKTLTLENVLDERRKELVAEGHRMYDVIRNGMTVKRIDVKDSDINKTKHNTAYMEYDWNFHKILLPIPKKEMDANPNMKQNPGYVD	glycan array binding signal (z-score)	[23]	0.099
same	glycan array binding signal (z-score)	[24]	-0.093
